Experimental data reported in PMC2590617.
Results are given in words; binding and its absence hold for the method and conditions named. In cells and extracts the contact can be indirect. Some entries that bind do so weakly or less than the wild type.

Target: death receptor DR5, tumor necrosis factor receptor superfamily member 10b (TNFRSF10B) (human (endogenous in DAOY)), O14763
Test: co-IP; DAOY cells pre-treated with HGF for 72 h, then TRAIL for 2 h; 500 ug total protein in lysis buffer (100 mM Tris-HCl, 5 uM EDTA, 1% NP-40) with 5 ug anti-DR5 antibody at 4°C, protein A/G beads overnight, 5 washes; Western blot for caspase 8, FLIP, FADD, c-Met and DR5
Details: remark: other sources report otherwise

B1: caspase 8, Q14790 1-479 (enzyme)
chain: MDFSRNLYDIGEQLDSEDLASLKFLSLDYIPQRKQEPIKDALMLFQRLQEKRMLEESNLSFLKELLFRINRLDLLITYLNTRKEEMERELQTPGRAQISAYRVMLYQISEEVSRSELRSFKFLLQEEISKCKLDDDMNLLDIFIEMEKRVILGEGKLDILKRVCAQINKSLLKIINDYEEFSKERSSSLEGSPDEFSNGEELCGVMTISDSPREQDSESQTLDKVYQMKSKPRGYCLIINNHNFAKAREKVPKLHSIRDRNGTHLDAGALTTTFEELHFEIKPHDDCTVEQIYEILKIYQLMDHSNMDCFICCILSHGDKGIIYGTDGQEAPIYELTSQFTGLKCPSLAGKPKVFFIQACQGDNYQKGIPVETDSEEQPYLEMDLSSPQTRYIPDEADFLLGMATVNNCVSYRNPAEGTWYIQSLCQSLRERCPRGDDILTILTEVNYEVSNKDDKKNMGKQMPQPTFTLRKKLVFPSD
  binding: binds
